Data as given in publication PMC10394380.
Numbering of substitutions follows the chain as printed. Names and notes keep the numbering of the source. These are yes or no findings as the source states them, for the method shown. Some results given as binding are weak or reduced against the parent protein; the word gives no strength. Where a sequence is shown, tags or fusion partners need not be part of it. Blank lines part the entries; values can stand above or below the binder they belong to.

Legend:
[1] = target: GFP-CAV1-P158 (CAV1 P158PfsX22 frameshift mutant) (mouse) (UniProt P49817); assay: sucrose gradient sedimentation; transfected COS-1 cells (3 h expression, untreated) solubilized with 0.5% Triton X-100 (TX), loaded on top of a 10-40% sucrose step gradient, ultracentrifuged at 55,000 rpm, 4°C; seven fractions immunoblotted with anti-GFP
[2] = target: GFP-CAV1-P158 (CAV1 P158PfsX22 frameshift mutant) (mouse) (UniProt P49817); assay: sucrose gradient sedimentation; as the TX gradient (0.5% Triton X-100), but protein expressed for 3 h in cells treated with the proteasome inhibitor MG132 (50 uM)
[3] = target: GFP-CAV1 (Caveolin-1, alpha-CAV1) (mouse) (UniProt P49817); assay: sucrose gradient sedimentation; transfected COS-1 cells (3 h expression, untreated) solubilized with 0.2% Triton X-100 + 0.4% SDS (TX+SDS), 10-40% sucrose step gradient, 55,000 rpm, 4°C; fractions immunoblotted with anti-GFP
[4] = target: GFP-CAV1 (Caveolin-1, alpha-CAV1) (mouse) (UniProt P49817); assay: sucrose gradient sedimentation; transfected COS-1 cells (3 h expression, untreated) solubilized with 0.5% Triton X-100 (TX), loaded on top of a 10-40% sucrose step gradient, ultracentrifuged at 55,000 rpm, 4°C; seven fractions immunoblotted with anti-GFP
[5] = target: GFP-CAV1 (Caveolin-1, alpha-CAV1) (mouse) (UniProt P49817); assay: sucrose gradient sedimentation; as the TX gradient (0.5% Triton X-100), but protein expressed for 3 h in cells treated with the proteasome inhibitor MG132 (50 uM)
GFP-CAV1-P132L (mouse) = GFP-CAV1-P132L (mouse) (UniProt P49817); assay: as above

binding [1]: binds | binding [2]: binds
B1: GFP-CAV1-P158 (CAV1 P158PfsX22 frameshift mutant) (protein, UniProt P49817 1-157)
chain: MSGGKYVDSEGHLYTVPIREQGNIYKPNNKAMADEVTEKQVYDAHTKEIDLVNRDPKHLNDDVVKIDFEDVIAEPEGTHSFDGIWKASFTTFTVTKYWFYRLLSTIFGIPMALIWGIYFAILSFLHIWAVVPCIKSFLIEIQCISRVYSIYVHTFCDPSLKLLGKYSAMSASTCRKKYK

binding [3]: binds | binding [4]: binds | binding [5]: binds
B2: GFP-CAV1 (Caveolin-1, alpha-CAV1) (protein, UniProt P49817 1-178)
chain: MSGGKYVDSEGHLYTVPIREQGNIYKPNNKAMADEVTEKQVYDAHTKEIDLVNRDPKHLNDDVVKIDFEDVIAEPEGTHSFDGIWKASFTTFTVTKYWFYRLLSTIFGIPMALIWGIYFAILSFLHIWAVVPCIKSFLIEIQCISRVYSIYVHTFCDPLFEAIGKIFSNIRISTQKEI

binding (GFP-CAV1-P132L (mouse)): binds
B3: GFP-CAV1-P132L (protein, UniProt P49817 1-178)
chain: B2 chain with P132L
